In PubChem BioAssay AID489008 (National Center for Advancing Translational Sciences (NCATS), 2010):
The shares of active, inactive and inconclusive entries below differ from those in the screen. Potencies of inconclusive entries are doubtful fits and often do not repeat. Calls of active or inactive are those of the source. Calls come from the whole dose curve; as a rule, active = well fitted inhibition curve with a large enough effect; inconclusive = small, poorly fitted or top-dose-only effect; inactive = flat fitted curve, though single readings scatter.

Sequences of proteins named here, by UniProt entry; tags and fusion partners are left off. Residues count along the entry.
UniProt P02791, 2-175 limits assumed: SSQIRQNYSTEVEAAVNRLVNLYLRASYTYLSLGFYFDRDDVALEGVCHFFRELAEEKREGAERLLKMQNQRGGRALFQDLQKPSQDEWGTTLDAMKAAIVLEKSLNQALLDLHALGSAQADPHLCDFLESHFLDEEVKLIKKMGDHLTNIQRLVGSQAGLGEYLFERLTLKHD

Target: Ferritin light chain (Equus caballus) (UniProt P02791)
Test: Confirmation Assay for Identification of Novel General Anesthetics; note: nearly all actives have a fitted effect of over 40% in size
Conditions: apoferritin 1-aminoanthracene fluorescence displacement
Procedure, shortened: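 Competitive displacement of profluorescent 1-aminoanthracene from 10 uM horse-spleen apoferritin in 50% saturated 1-AMA/PBS; 10 min RT, fluorescence Ex 380/Em 535. Normalized to free 1-AMA and complex; four-parameter Hill fit.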
Potency is the fitted concentration of half-maximal effect.

SMILES	Potency
N/C(=N\OC(=O)CCc1ccccc1)c1ccccc1Cl	inconclusive: 31.6 µM [inhibitor, partial curve]
Cc1ccc(NC(=O)CSCc2c(C)noc2C)cc1C	inconclusive: 14.1 µM [inhibitor, partial curve]
Cc1nc2ccccc2c(-c2ccccc2)c1C(=O)c1ccccc1	inconclusive: 39.8 µM [inhibitor, partial curve]
Cn1cc([N+](=O)[O-])c(C(=O)Nc2ccc(C3CCCCC3)cc2)n1	active: 14.1 µM
Cc1ccc(-c2ccc(=O)n(CC(=O)NCCc3ccccc3)n2)cc1	active: 6.31 µM
Cc1cc(Cl)ccc1Oc1nccc(N(C)C)c1C#N	inconclusive: 22.4 µM [inhibitor, partial curve]
O=S(=O)(Cc1ccccc1)Nc1ccccc1Br	inconclusive: 39.8 µM [inhibitor, partial curve]
O=C(NCc1ccc2c(c1)OCO2)NC12CC3CC(CC(C3)C1)C2	inconclusive: 35.5 µM [inhibitor, partial curve]
O=C(Nc1cccc(F)c1)N1CCCCCC1	active: 12.6 µM
Fc1ccc(CSc2nc3ccccc3[nH]2)cc1	inconclusive: 15.8 µM [inhibitor, partial curve]
Nc1nc(COc2ccc3ccccc3c2)cs1	inconclusive: 35.5 µM [inhibitor, partial curve]
Nc1nnc(Cc2ccc(Cl)cc2Cl)s1	inconclusive: 25.1 µM [inhibitor, partial curve]
CCOC(=O)c1ccc(NCc2ccc3c(c2)OCO3)cc1	inconclusive: 31.6 µM [inhibitor, partial curve]
Cc1nn(CC(=O)NCCCc2ccccc2)c(=O)c2cccn12	inconclusive: 11.2 µM [inhibitor, partial curve]
CCC(C(=O)c1ccc(O)cc1)c1ccccc1 (centres undefined)	inconclusive: 15.8 µM [inhibitor, partial curve]
O=S(=O)(Nc1ccc2c(c1)CCC2)c1cccs1	active: 17.8 µM
O=C(NC1CCCCCCC1)c1cc(COc2ccc3ncccc3c2)on1	active: 12.6 µM

3 entries already listed, ordered by molar mass, largest number first:
SMILES	Potency
O=S(=O)(Cc1ccccc1)Nc1ccccc1Br	inconclusive: 39.8 µM [inhibitor, partial curve]
O=S(=O)(Nc1ccc2c(c1)CCC2)c1cccs1	active: 17.8 µM
CCC(C(=O)c1ccc(O)cc1)c1ccccc1 (centres undefined)	inconclusive: 15.8 µM [inhibitor, partial curve]

(list continues)

SMILES	Potency
O=S(=O)(c1ccc2[nH]ccc2c1)N1CCCCCC1	inconclusive: 17.8 µM [inhibitor, partial curve]
CCOc1cc(C)c(S(=O)(=O)Nc2ccc(F)cc2)cc1C	inconclusive: 39.8 µM [inhibitor, partial curve]
c1ccc([C@H]2CC3C[C@@H](c4ccccc4)N2O3)cc1	inconclusive: 17.8 µM [inhibitor, partial curve]
N#Cc1ccccc1NCc1ccccc1	active: 11.2 µM
Nc1cc(=O)[nH]c(SCc2ccc(Cl)cc2)n1	inconclusive: 11.2 µM [inhibitor, partial curve]
Cc1cnc(C(=O)OCC(=O)NC2CCCC(C)C2C)cn1 (centres undefined)	inconclusive: 17.8 µM [inhibitor, partial curve]
CCNc1nc(-c2ccc(Cl)cc2)cs1	inconclusive: 39.8 µM [inhibitor, partial curve]
Cc1ccc(N2C(=O)CC(C)(C)CC2=O)cc1Cl	inconclusive: 14.1 µM [inhibitor, partial curve]
CC1CCCC(C)N1C(=O)COc1ccccc1F (centres undefined)	active: 17.8 µM
O=C(Nc1ccc(Cl)c(Cl)c1)N1CCSC1c1ccco1 (centres undefined)	inconclusive: 25.1 µM [inhibitor, partial curve]
CCN(CC)S(=O)(=O)c1ccc(Cl)c(OC)c1	inconclusive: 17.8 µM [inhibitor, partial curve]
c1ccc(C2(CNc3ccccn3)CCCC2)cc1	inconclusive: 35.5 µM [inhibitor, partial curve]
O=C1OC(Nc2ccc3c(c2)OCO3)c2ccccc21 (centres undefined)	inconclusive: 17.8 µM [inhibitor, partial curve]
CC1CCCC(NC(=O)COC(=O)c2ccc(N(C)C)cc2)C1C (centres undefined)	active: 7.08 µM
Oc1ccccc1OCc1nc2ccccc2s1	inconclusive: 44.7 µM [inhibitor, partial curve]
Nc1cc(Cl)ccc1Oc1ccc(Cl)cc1	inconclusive: 35.5 µM [inhibitor, partial curve]
CC(=O)Nc1nnc(SCc2ccccc2F)s1	inconclusive: 7.94 µM [inhibitor, full curve]
